Article PMC11071249

The chains behind the UniProt entries cited, without tags or fusion partners.
UniProt Q9Y4B6: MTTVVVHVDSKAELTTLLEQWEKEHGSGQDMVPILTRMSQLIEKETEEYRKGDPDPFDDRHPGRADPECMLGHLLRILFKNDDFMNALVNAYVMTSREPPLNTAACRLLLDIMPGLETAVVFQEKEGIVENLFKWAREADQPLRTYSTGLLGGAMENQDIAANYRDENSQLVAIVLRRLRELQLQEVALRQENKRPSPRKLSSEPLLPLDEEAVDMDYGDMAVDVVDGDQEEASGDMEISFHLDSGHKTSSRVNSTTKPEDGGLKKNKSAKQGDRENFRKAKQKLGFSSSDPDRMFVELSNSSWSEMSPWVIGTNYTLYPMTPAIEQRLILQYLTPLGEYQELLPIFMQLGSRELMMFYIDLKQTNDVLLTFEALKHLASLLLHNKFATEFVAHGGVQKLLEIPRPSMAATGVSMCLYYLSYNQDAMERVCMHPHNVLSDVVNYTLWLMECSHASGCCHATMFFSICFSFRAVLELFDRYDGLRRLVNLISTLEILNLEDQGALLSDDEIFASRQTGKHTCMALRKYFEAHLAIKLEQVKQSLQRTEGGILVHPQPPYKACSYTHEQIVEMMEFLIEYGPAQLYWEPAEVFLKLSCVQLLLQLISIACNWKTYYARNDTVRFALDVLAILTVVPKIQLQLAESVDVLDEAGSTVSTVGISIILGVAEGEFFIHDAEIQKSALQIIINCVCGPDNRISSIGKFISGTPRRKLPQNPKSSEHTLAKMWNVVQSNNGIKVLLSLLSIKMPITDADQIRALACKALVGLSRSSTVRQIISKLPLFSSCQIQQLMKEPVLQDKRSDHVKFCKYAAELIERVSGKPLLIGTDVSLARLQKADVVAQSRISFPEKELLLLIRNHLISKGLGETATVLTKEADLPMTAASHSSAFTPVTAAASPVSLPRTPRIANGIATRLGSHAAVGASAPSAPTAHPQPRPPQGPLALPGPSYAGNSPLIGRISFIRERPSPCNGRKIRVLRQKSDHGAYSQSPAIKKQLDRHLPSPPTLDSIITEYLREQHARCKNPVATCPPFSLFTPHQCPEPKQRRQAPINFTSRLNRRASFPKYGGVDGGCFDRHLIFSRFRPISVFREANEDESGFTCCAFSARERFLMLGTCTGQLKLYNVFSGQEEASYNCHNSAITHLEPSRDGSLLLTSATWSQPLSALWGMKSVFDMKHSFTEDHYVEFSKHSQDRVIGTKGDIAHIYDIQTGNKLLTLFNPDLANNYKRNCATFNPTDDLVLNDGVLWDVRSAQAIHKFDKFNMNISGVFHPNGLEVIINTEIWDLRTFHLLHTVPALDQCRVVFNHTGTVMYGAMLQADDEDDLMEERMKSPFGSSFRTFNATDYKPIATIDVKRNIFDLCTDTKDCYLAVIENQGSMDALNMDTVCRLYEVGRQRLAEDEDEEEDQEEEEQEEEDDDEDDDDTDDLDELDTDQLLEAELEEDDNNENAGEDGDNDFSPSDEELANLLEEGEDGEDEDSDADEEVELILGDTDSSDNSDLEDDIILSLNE
UniProt Q8TEW0: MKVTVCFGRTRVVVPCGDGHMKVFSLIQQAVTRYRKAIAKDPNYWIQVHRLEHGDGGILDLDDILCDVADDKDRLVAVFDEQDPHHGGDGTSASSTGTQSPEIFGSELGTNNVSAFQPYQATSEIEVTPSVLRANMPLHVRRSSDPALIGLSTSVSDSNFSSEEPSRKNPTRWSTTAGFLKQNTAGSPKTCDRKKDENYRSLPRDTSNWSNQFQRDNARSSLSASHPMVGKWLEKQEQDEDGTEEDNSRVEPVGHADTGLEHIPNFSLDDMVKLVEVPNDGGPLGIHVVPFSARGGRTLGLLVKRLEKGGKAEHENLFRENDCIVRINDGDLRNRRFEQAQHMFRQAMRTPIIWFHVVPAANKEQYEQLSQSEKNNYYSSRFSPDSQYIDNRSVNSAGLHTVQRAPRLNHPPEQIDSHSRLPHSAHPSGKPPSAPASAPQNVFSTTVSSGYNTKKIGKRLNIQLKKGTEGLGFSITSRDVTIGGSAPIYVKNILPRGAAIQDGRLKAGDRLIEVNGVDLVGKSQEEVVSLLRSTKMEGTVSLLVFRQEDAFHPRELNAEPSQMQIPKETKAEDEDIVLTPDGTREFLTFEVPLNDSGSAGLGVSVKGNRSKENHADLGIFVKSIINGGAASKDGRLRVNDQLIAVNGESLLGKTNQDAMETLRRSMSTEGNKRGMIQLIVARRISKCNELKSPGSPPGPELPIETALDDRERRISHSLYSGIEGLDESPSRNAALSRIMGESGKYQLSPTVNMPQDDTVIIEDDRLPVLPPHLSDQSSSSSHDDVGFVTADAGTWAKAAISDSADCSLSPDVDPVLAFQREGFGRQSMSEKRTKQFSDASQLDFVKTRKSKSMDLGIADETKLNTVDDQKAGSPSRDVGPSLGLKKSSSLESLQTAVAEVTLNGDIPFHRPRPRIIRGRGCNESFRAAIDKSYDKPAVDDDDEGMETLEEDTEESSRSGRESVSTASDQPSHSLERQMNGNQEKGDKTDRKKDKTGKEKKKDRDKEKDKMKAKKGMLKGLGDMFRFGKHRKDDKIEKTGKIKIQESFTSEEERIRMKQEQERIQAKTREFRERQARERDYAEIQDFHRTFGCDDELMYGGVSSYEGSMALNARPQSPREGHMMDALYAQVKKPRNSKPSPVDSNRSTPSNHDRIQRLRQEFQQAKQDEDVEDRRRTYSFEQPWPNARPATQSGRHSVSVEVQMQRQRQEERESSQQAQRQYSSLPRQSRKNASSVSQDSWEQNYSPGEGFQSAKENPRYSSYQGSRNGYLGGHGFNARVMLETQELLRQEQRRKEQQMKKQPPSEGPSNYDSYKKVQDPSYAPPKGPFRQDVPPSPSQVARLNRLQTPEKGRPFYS

Biological target: DDB1 and CUL4 associated factor 1 (DCAF1) (UniProt Q9Y4B6)
Assay: affinity purification with mass spectrometry; lysate of HepG2 cells overexpressing DCAF1, immunoprecipitated with DCAF1 primary antibody; SDS-PAGE, digestion, LC-MS/MS

- binding: binds
Substance: par-3 family cell polarity regulator (PARD3) (from UniProt Q8TEW0 1-1356)

Results are given in words; binding and its absence hold for the method and conditions named. In cells and extracts the contact can be indirect. These calls come from enrichment with a bait or labelling near it, and not all partners need be listed.
